# Measurements as given in PubChem BioAssay AID1259354 (Paczesny and Yang Labs, IUPUI and University of Michigan, 2018).
# Chains of the proteins cited; added tags and fusions are not shown. Lines headed by an entry give the natural chain unless they say otherwise; changes in a name come on top.
# UniProt Q01638: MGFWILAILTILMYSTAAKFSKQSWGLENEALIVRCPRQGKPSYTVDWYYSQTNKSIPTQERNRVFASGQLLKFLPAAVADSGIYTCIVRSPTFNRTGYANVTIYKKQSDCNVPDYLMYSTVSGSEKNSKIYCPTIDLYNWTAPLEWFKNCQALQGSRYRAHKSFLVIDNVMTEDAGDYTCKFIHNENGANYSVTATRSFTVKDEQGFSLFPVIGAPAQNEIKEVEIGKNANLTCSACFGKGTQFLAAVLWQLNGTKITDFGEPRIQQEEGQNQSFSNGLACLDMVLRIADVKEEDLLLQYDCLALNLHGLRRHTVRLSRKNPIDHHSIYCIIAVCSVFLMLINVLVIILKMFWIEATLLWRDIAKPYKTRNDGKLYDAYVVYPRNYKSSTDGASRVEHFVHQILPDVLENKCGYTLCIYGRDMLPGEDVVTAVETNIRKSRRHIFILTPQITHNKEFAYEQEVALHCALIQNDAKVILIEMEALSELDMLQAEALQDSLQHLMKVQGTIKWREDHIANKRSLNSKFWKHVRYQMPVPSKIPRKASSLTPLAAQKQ
# About 1,800 (2.3%) of roughly 78,000 compounds were called active. This list was built around the results that the source calls inconclusive (neither active nor inactive); the mix of calls is not that of the screen. Cut-off read from the data, not from the text of the source: active = inhibition above about 30%; inconclusive = mostly about 10% to 28%; inactive = weaker than that.
# Target: Interleukin-1 receptor-like 1 (Homo sapiens) (UniProt Q01638)
# Assay: blocks human ST2 binding to IL-33, primary screen, biochemical, AlphaLISA (AID 1259354)
# Settings: AlphaLISA ST2-Fc/biotin-IL-33 interaction, 1 h; at 17 µM, hits give high values
row,SMILES,inhibition
1,CC1=C[C@@H](CNC(=O)NC(C)C)[C@H](C(C)C)C[C@H]1CC(=O)NCc1cccnc1,inconclusive: 11%
2,O=c1oc2c(Cl)cc(NS(=O)(=O)c3ccc(Br)cc3)cc2s1,inconclusive: 10%
3,CCOC(=O)C1=C(c2ccccc2)Nc2ncnn2C1c1ccc(Br)cc1 (configuration not stated),inactive
4,Cc1nc(NCCc2ccc3c(c2)OCCO3)c2c3c(sc2n1)CCCC3,inconclusive: 10%
5,CSC1=C(C#N)C(c2cccc(Cl)c2Cl)CC(=O)N1 (configuration not stated),inconclusive: 14%
6,CN(C(=O)c1cnn(-c2ccccc2)c1)C1CCCN(C2Cc3ccccc3C2)C1 (configuration not stated),inactive
7,CCOc1ccc(C2C(C(=O)OC)=C(N)OC3=C2C(=O)CC(c2ccccc2)C3)cc1 (configuration not stated),inactive
8,Cc1ccc(S(=O)(=O)C(F)(F)F)cc1NC(=O)c1cccnc1,inconclusive: 13%
9,CCOc1ccc(C2C3=C(CCCC3=O)NC3=C2C(=O)c2ccccc23)cc1 (configuration not stated),active: 36%
10,Cc1ccc(-c2nc(N(C)Cc3nccn3C)ncc2-c2ccc(N)nc2)cc1,inactive
11,CCOc1ccc(C(=O)Nc2ccc(Nc3nc(C)cc(Nc4ccccc4)n3)cc2)cc1OCC,inconclusive: 26%
12,CC(C)CCNC(=O)c1cc(=O)[nH]c2ccc(S(=O)(=O)N3CCC(C)CC3)cc12,inactive
13,CC1CCCCC1NC(=O)c1cccn2c(=O)c3sccc3nc12 (configuration not stated),inconclusive: 13%
14,Cc1cc(N(C)C)cc(C)[n+]1OC(=O)N1CCCCC1,inactive
15,CCCCN(CCCC)c1nc(C)cc(=O)[nH]1,inconclusive: 17%
16,COc1ccc(Cn2c(CNC(=O)Cc3ccc(OC)c(OC)c3)nc3cccnc32)cc1,inconclusive: 26%
17,Fc1ccc(C=Nc2c(-c3ccco3)nc3ccccn23)cc1,active: 49%
18,COc1cc(/C=C2\Sc3ccccc3C2=O)cc([N+](=O)[O-])c1O,active: 30%
19,COCC(=O)NC[C@H]1O[C@@H](CO)[C@@H](O)[C@H]1N1CCCCC1,inconclusive: 14%
20,N#Cc1ccccc1S(=O)(=O)N[C@H]1CO[C@H]2[C@@H]1OC[C@H]2OC(=O)NC1CCCCC1,inconclusive: 23%
21,CN1CC2(CCCN(Cc3ccc(S(C)(=O)=O)cc3)C2)OC1=O (configuration not stated),inconclusive: 24%
22,Cn1c(C(=O)NCCCN2CCCC2=O)cc2c(=O)n3ccccc3nc21,inconclusive: 11%
23,Cn1c(=O)[nH]c(=O)c2c1nc(Br)n2Cc1ccc(Cl)cc1,inconclusive: 10%
24,CCOc1ccc(Cl)cc1CN(C)C(=O)CC(=O)Nc1ccccc1C,inactive

row,SMILES,inhibition
1,CC(C)Cn1c(NCCO)nc2c1c(=O)[nH]c(=O)n2C,inactive
2,Cc1sc2ncc(C(=O)N3CCCC4(CNC(=O)O4)C3)c(=O)n2c1C (configuration not stated),inconclusive: 19%
3,COc1ccc(N2CCN(C3CCCN(Cc4cnc(C)[nH]4)C3)CC2)cc1 (configuration not stated),inconclusive: 11%
4,Cc1c(Nc2c3c(c(C#N)c4nc5ccccc5n24)CCC3)c(=O)n(-c2ccccc2)n1C,inconclusive: 19%
5,COc1ccccc1C1C(C(=O)c2cccs2)=C(O)C(=O)N1c1ccccn1 (configuration not stated),inactive
6,O=C1C(Nc2ccccc2)=CC(c2ccccc2[N+](=O)[O-])N1c1ccccc1 (configuration not stated),active: 30%
7,COC[C@H]1CCCN1C(=O)CC[C@H]1CNC(=O)[C@@H]2[C@@H](CCN2C2CCN(C)CC2)N1C,inconclusive: 13%
8,C=CCc1ccccc1OCC(O)Cn1c(C)nc2ccccc21 (configuration not stated),inactive
9,CC(Oc1ccc(Cl)cc1Cl)C(=O)Nc1cccc([N+](=O)[O-])c1 (configuration not stated),active: 30%
10,CCc1nc2c(cnn2-c2ccc(Cl)cc2)c(=O)n1-c1ccc2c(c1)OCCO2,inconclusive: 15%
11,Cc1nc(C(C)NC(=O)c2ccccc2-c2ccccc2)n[nH]1 (configuration not stated),inconclusive: 12%
12,Nc1ccc2nc(SCc3cccc(F)c3)sc2c1,inconclusive: 12%
13,CC(=O)Nc1ccc(-c2nc3ccc(C)cc3s2)cc1,inconclusive: 10%
14,Cc1nn(-c2ccccc2)c(C)c1-c1ccnc(NCCC2CCCN2C)n1 (configuration not stated),inconclusive: 11%
15,O=C(Nn1cnnc1)c1ccccc1Cl,active: 56%
16,CCOc1ccc(C(=O)c2cccc([N+](=O)[O-])c2)cc1,active: 31%
17,C#CCN(C)C(=O)C[C@@H]1CCNC[C@@H]1Cc1cc(CC2CCCCC2)on1,inconclusive: 17%
18,CC(=O)n1cc(/C=C2\N=C(c3ccc(Cl)cc3)OC2=O)c2cc(Br)ccc21,inactive
19,O=[N+]([O-])c1ccccc1/C=C/CN1CCN(c2cccc(Cl)c2)CC1,inconclusive: 21%
20,COC[C@H](N)C(=O)Nc1cccc(NC(=O)Cc2ccccc2)c1,inactive
21,CCC(NCC(=O)Nc1ccc(Cl)c(OC)c1)c1ccnn1C (configuration not stated),inconclusive: 12%
22,O=C(/C=C/c1ccc(O)c(O)c1)OCCc1ccccc1,inconclusive: 27%
23,CNC(=O)C1CCC(Cn2c(=O)c3sccc3n(CC(=O)Nc3cc(C)cc(C)c3)c2=O)CC1 (configuration not stated),inconclusive: 10%

# Copied from the list.
# Entry for `CC(=O)n1cc(/C=C2\N=C(c3ccc(Cl)cc3)OC2=O)c2cc(Br)ccc21` under inhibition: inactive
# Entry for `CC(Oc1ccc(Cl)cc1Cl)C(=O)Nc1cccc([N+](=O)[O-])c1` (configuration not stated) under inhibition: active: 30%
# Entry for `CC(=O)Nc1ccc(-c2nc3ccc(C)cc3s2)cc1` under inhibition: inconclusive: 10%
